# Test results published in patent US11519859B2, “Rhodol-based thallium sensors for high-throughput screening of potassium channels” (priority 2018, dated 2022).
# Some of these results come from one statement about several compounds together. For at least one compound, name, drawing or mass did not settle the structure.
# Tested on: HEK-293 cells co-expressing GIRK1 and GIRK2
# Details: dye loading 1 h; 10 μM ML297; 1 mM Tl^+ stimulus; 2 mM Allura Red AC; n = 6
row,SMILES,"on/off (Tl^+ flux assay), maximum fold increase in fluorescence after Tl^+ addition"
1,"COc1cc(NC(=O)c2ccc3c(c2)C(=O)OC32c3ccc(NC4CCCCC4)cc3Oc3cc(OC(C)=O)ccc32)ccc1N(CC(=O)OCOC(C)=O)CC(=O)OCOC(C)=O (centres unmarked) [Compound 8g, bis(acetoxymethyl) 2,2′-((4-(3′-acetoxy-6′-(cyclohexylamino)-3-oxo-3H-spiro[isobenzofuran-1,9′-xanthen]-5-ylcarboxamido)-2-methoxyphenyl)azanediyl)diacetate]",> 3 fold
2,"CCCCNc1ccc2c(c1)Oc1cc(OC(C)=O)ccc1C21OC(=O)c2cc(C(=O)Nc3ccc(N(CC(=O)OCOC(C)=O)CC(=O)OCOC(C)=O)c(OC)c3)ccc21 (centres unmarked) [Compound 8h, bis(acetoxymethyl) 2,2′-((4-(3′-acetoxy-6′-(butylamino)-3-oxo-3H-spiro[isobenzofuran-1,9′-xanthen]-5-ylcarboxamido)-2-methoxyphenyl)azanediyl)diacetate]",> 3 fold
3,"COc1cc(NC(=O)c2ccc3c(c2)C(=O)OC32c3ccc(OC(C)=O)cc3Oc3cc(N4CCC4)ccc32)ccc1N(CC(=O)OCOC(C)=O)CC(=O)OCOC(C)=O (centres unmarked) [Compound 8j, bis(acetoxymethyl) 2,2′-((4-(3′-acetoxy-6′-(azetidin-1-yl)-3-oxo-3H-spiro[isobenzofuran-1,9′-xanthen]-5-ylcarboxamido)-2-methoxyphenyl)azanediyl)diacetate]",> 3 fold
4,"COc1cc(NC(=O)c2ccc3c(c2)C(=O)OC32c3ccc(OC(C)=O)cc3Oc3cc(N4CCCC4)ccc32)ccc1N(CC(=O)OCOC(C)=O)CC(=O)OCOC(C)=O (centres unmarked) [Compound 8l, bis(acetoxymethyl) 2,2′-((4-(3′-acetoxy-3-oxo-6′-(pyrrolidin-1-yl)-3H-spiro[isobenzofuran-1,9′-xanthen]-5-ylcarboxamido)-2-methoxyphenyl)azanediyl)diacetate]",> 3 fold
5,"COc1cc(NC(=O)c2ccc3c(c2)C(=O)OC32c3ccc(OC(C)=O)cc3Oc3cc(N4CCCCC4)ccc32)ccc1N(CC(=O)OCOC(C)=O)CC(=O)OCOC(C)=O (centres unmarked) [Compound 8m, bis(acetoxymethyl) 2,2′-((4-(3′-acetoxy-3-oxo-6′-(piperidin-1-yl)-3H-spiro[isobenzofuran-1,9′-xanthen]-5-ylcarboxamido)-2-methoxyphenyl)azanediyl)diacetate]",> 3 fold
